The target of this assay is human P2X7 (Homo sapiens, UniProt Q99572). In words: ATP-induced YO-PRO-1 dye uptake in HEK-hP2X7 cells. The conditions noted are these: read-out: IC50 value (95% CI). Type of assay: cell-based.

Sequences of proteins named here, by UniProt entry; tags and fusion partners are left off.
UniProt Q99572, whole entry: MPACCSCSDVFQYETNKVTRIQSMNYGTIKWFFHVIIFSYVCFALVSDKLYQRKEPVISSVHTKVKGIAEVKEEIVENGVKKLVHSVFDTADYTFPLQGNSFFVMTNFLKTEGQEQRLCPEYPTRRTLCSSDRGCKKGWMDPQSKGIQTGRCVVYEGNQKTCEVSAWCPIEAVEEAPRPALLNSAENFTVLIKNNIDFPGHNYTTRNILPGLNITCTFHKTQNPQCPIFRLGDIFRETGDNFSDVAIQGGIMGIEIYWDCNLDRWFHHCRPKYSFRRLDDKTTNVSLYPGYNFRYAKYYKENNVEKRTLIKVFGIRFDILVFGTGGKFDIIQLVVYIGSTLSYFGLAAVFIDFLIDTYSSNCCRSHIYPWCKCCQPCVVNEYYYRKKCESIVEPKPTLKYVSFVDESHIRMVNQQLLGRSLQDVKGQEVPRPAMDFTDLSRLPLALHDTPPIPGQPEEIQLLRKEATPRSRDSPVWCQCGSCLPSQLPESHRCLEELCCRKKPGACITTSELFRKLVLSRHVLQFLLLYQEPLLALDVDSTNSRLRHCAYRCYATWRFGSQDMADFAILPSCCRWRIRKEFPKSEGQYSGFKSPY

In PMC12062478, “Screening herbal and natural product libraries to aid discovery of novel allosteric modulators of human P2X7” (Purinergic Signalling, 2024) one finds IC50 data, which are given here for one molecule.

For part of its entries the source gives two or more results. Only these are listed. An entry can have further records. Values that stand side by side do not match, cause unknown; they may come from other doses, times, organisms or constructs than stated.

What is called IC50 is the concentration at which inhibition is half-maximal. Consider `O=C(O[C@@H]1Cc2c(O)cc(O)cc2O[C@@H]1c1cc(O)c(O)c(O)c1)c1cc(O)c(O)c(O)c1` [EGCG, epigallocatechin gallate], for which the IC50 is < 10 µM and 2.39 µM.
